Laboratory results published in PMC7862700.
Only a part is listed here, and it is no random draw. At the low end of the ranking the order means little.

Amino acid sequences for entries named in this document (tags omitted). A change or cut given only in a name is not applied to a line headed by its entry.
UniProt O43186: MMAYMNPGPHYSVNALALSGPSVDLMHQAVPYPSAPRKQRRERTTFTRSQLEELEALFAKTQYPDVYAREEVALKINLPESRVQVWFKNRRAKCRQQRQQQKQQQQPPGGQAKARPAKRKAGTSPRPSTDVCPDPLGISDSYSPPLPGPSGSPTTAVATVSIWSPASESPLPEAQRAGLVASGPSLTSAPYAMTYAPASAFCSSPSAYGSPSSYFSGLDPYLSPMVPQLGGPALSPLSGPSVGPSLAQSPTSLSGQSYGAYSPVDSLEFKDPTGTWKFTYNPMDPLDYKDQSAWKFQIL

Columns and labels:
CRX = CRX (UniProt O43186); assay: DAPPL (digital affinity profiling via proximity ligation, sequencing); conditions: 10 mM Tris-HCl pH 7.5, 50 mM NaCl, 1 mM DTT, 4% glycerol, room temperature, 30 min; GST-TFs on glutathione beads, 16-mer random dsDNA library, 0.1% …; high values mean tight binding; double strand, one strand shown; scale: fold enrichment (6-mer frequency, TF over GST control)
ELF5 = target: T1, ELF5 (UniProt Q9UKW6-2); assay: as above; conditions: 10 mM Tris-HCl pH 7.5, 50 mM NaCl, 1 mM DTT, 4% glycerol, room temperature, 30 min; GST-TFs on glutathione beads, 16-mer random dsDNA library, 0.1% …; high values mean tight binding; double strand, one strand shown; scale: fold enrichment (6-mer frequency, TF over GST control)
T1 sequence: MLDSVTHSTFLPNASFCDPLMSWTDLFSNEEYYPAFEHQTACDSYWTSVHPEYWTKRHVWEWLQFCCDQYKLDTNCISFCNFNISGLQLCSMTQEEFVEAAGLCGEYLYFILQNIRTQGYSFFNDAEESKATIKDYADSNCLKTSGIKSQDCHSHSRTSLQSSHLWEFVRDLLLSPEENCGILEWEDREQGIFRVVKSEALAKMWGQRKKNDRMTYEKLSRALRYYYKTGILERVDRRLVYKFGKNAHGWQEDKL

Sequence	binding signal (CRX)	binding signal (ELF5)
GTGCCC	0.649	0.829
CGGCAT	0.892	1.07
TAGACA	1.03	0.955
ACTGTT	0.926	1.22
GGTCAC	0.631	0.999
GCGCCG	0.723	0.879
TCACCG	0.838	1.01
GGATGC	0.65	1.25
ATGTGC	0.897	1.09
AGCACA	0.883	1.05
CAGACT	0.969	0.941
AAACTT	1.21	1.43
GTGGCC	0.754	0.912
ACTCAG	0.914	0.998
TAACAG	1.3	0.985
CTCAGC	1.31	1.08
GTGCTA	0.997	0.973
TTCTAT	1.67	1.3
ACGTTT	1	1.23
GCACAC	0.692	0.928
CCACTG	0.858	1.09
ACGTCT	1.09	1.09
CTACAA	1.04	1.16
ACAGCA	0.772	0.978
GTACCA	0.783	0.965
TTCAAT	1.38	1.26
CACCGA	0.879	1.04

Sequence	binding signal (CRX)	binding signal (ELF5)
GTTACC	0.815	1.11
AGCTCG	0.979	0.95
GGTACA	0.722	1
ACACCG	0.726	0.946
CGATGT	0.896	0.994
CTCATC	1.32	1.44
AAGCTG	1.59	1.11
GCCCAA	0.983	0.986
ATGGGC	0.994	1.26
GCCCAC	0.858	0.992
TGCCGG	0.626	1.09
ATCCTT	2.37	2.26
GCACTG	0.765	0.981
CGCTGG	0.825	0.965
CGCCAC	0.757	1.05
TCCATT	1.35	1.2
AATACC	1.44	1.17
ATCAAA	1.31	1.02
GTACAC	0.798	1.2
CGGTTA	0.88	1.07
GCGCCC	0.794	0.977
GCCCCG	0.813	0.974
TGTCCG	0.754	1.62
ACCCAC	0.875	1.19
TCAGCA	1.01	0.95
ACCTTT	1.3	1.45
CACGCA	0.759	0.937

Reformatted: results already given
Sequence,binding signal (CRX),binding signal (ELF5)
CGATGT,0.896,0.994
GCCCAC,0.858,0.992
AATACC,1.44,1.17

Later entries:

Sequence	binding signal (CRX)	binding signal (ELF5)
CACGAC	0.875	1.24
AGTGTT	0.968	1.3
TCAATG	1.02	0.971
CATACA	0.804	0.964
CTGGCA	1.19	1.19
TTGCTT	1.24	1.29
AATCCT	3.32	1.61
CCACAG	0.754	0.878
ACGGAA	0.763	2.24
GGTAAC	0.716	1.02
ATTGTC	1.06	1.2
CCGACA	0.918	1.25
CATAAC	0.98	1.15
GCAATG	0.779	0.978
CACACG	0.897	1.04
TGCGGA	0.815	1.46
CGCGGC	0.872	0.948
ACGCCG	0.83	0.987
GTGCAT	0.829	1.02
ACCTAG	0.999	0.932
GCCGCA	0.805	0.923
CTCACC	0.966	1.15
ATTAGT	2.44	0.99
CATAAA	1.11	0.967
CTCGCG	1.3	1.42
